Hit rate of the full screen: of about 390,000 compounds, about 4,000 (1%) were called active. This list was built around the results that the source calls inconclusive (neither active nor inactive); the mix of calls is not that of the screen. The call rests on the fitted dose curve; in most records, active means well fitted inhibition curve with a large enough effect; inconclusive means small, poorly fitted or top-dose-only effect, or another doubt; inactive means no such curve, though single readings can be large or run the other way. Potencies of inconclusive entries are doubtful fits and often do not repeat.
Target: DNA polymerase iota (Homo sapiens) (UniProt Q9UNA4)
Test: qHTS for Inhibitors of Polymerase Iota
Details: Pol iota fluorescent replication assay, 10 min; series mostly up to 115 µM; activity, negative = inhibition: at the top concentration
In short: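 Fluorescent replication assay read twice, at 0 min and 10 min after adding 50 nM (final) substrate. Enzyme (10 nM) and compounds were first incubated 15 min at room temperature; enzyme-free buffer wells were negative controls.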
Potency means the concentration at half of the fitted maximal effect.

Chains of the proteins cited; added tags and fusions are not shown. Lines headed by an entry give the natural chain unless they say otherwise; changes in a name come on top.
UniProt Q9UNA4: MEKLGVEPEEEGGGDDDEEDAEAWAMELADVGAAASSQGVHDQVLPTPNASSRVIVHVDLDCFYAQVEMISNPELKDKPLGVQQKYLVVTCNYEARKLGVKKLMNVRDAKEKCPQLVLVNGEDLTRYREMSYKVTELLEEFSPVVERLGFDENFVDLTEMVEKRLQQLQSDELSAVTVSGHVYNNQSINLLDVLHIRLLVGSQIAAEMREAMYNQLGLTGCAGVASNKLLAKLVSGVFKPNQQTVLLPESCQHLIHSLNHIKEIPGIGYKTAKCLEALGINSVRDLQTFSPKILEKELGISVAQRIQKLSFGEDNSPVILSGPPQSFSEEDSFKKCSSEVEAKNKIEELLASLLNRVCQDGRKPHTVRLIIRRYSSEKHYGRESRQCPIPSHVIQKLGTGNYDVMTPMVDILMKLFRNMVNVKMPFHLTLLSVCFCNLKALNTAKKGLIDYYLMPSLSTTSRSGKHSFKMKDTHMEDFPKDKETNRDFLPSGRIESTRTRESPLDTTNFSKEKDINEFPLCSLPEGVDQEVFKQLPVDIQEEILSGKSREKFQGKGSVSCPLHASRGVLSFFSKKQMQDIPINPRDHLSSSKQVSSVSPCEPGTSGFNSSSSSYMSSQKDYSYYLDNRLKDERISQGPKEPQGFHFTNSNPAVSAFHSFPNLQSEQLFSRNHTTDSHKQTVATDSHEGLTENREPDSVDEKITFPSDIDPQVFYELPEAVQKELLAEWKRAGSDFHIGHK

| SMILES | Potency | activity, negative = inhibition |
| --- | --- | --- |
| Cc1ccc(N2C(=O)NC(=O)/C(=C/c3cnc(-c4ccccc4)nc3)C2=O)cc1C | inconclusive: 25.1 µM [inhibitor, partial curve, poor fit] |  |
| Cc1c(C(N)=O)cc([N+](=O)[O-])cc1[N+](=O)[O-] |  | inactive: 64.5% |
| NC(=O)OCCCc1ccccc1 | inconclusive: 7.94 µM [inhibitor, full curve, poor fit] |  |
| O=C1NC(=O)N(CCC2=CCCCC2)C(=O)/C1=C\c1cccs1 | active: 39.8 µM |  |
| CCN(CC)C(=O)COc1cc(C)cc2oc(=O)c3c(c12)CCCC3 | inconclusive: 89.1 µM [inhibitor, single point] |  |
| CCOC(=O)N1C(C)CN(/[N+]([O-])=N/Oc2ccc([N+](=O)[O-])cc2[N+](=O)[O-])CC1C (centres undefined) | inconclusive: 79.4 µM [inhibitor, single point] |  |
| CC(=O)Nc1ccc(Cc2nc3ccccc3[nH]2)cc1 |  | inactive: 54.8% |
| CCc1ccc(CN2CCCC(C(=O)c3sccc3C)C2)o1 (centres undefined) |  | inactive: 21.5% |
| COc1ccc(CCn2c(O)c(/C=N/NC(=O)c3ccncc3)c(=O)[nH]c2=O)cc1OC |  | inactive: -6.46% |
| CC(=O)c1ccc2c(c1)C1C(Cl)C(Sc3ccccc3[N+](=O)[O-])CC1C(c1ccccc1[N+](=O)[O-])N2 (centres undefined) | inconclusive: 35.5 µM [inhibitor, partial curve, poor fit] |  |
| N#CC1=C(N)Oc2n[nH]c(-c3cccs3)c2C1c1ccco1 (centres undefined) | active: 12.6 µM |  |
| CN(C)[C@@H]1C(=O)C(C(N)=O)=C(O)[C@@]2(O)C(=O)C3=C(O)c4c(O)cccc4[C@@](C)(O)C3[C@H](O)C12 (some centres undefined) | active: 12.6 µM |  |
| COc1ccc(CN2Cc3cnnn3-c3ccccc3C2C#N)cc1 (centres undefined) | inconclusive: 28.2 µM [inhibitor, partial curve, poor fit] |  |
| C=CCSC1=N/C(=C\c2cc(OC)c3c(c2)OCO3)C(=O)S1 | inconclusive: 14.1 µM [inhibitor, full curve, poor fit] |  |
| O=C(c1ccccc1F)c1cn(Cc2ccc(F)cc2)c2ccccc12 | inconclusive: 89.1 µM [inhibitor, single point] |  |
| O=C1NC(=O)C(Cc2ccccc2)(Cc2ccccc2)C(=O)N1Cc1ccccc1 | inconclusive: 10 µM [inhibitor, partial curve, poor fit] |  |
| COc1cc2c(cc1O)CC1c3c(cc(O)c(OC)c3-2)CCN1C (centres undefined) | inconclusive: 5.01 µM [inhibitor, full curve, poor fit] |  |
| CCC(NC(=O)OC(C)(C)C)C(=O)Oc1cc(C)cc2oc(=O)c3c(c12)CCC3 (centres undefined) |  | inactive: 27.5% |
| CO[C@@H]1C=CC23c4cc5c(cc4CO[C@]2(O)CN(C)[C@H]3C1)OCO5 (some centres undefined) | inconclusive: 25.1 µM [inhibitor, single point] |  |

Not a retest: an excerpt of the list.

| SMILES | Potency | activity, negative = inhibition |
| --- | --- | --- |
| COc1cc2c(cc1O)CC1c3c(cc(O)c(OC)c3-2)CCN1C (centres undefined) | inconclusive: 5.01 µM [inhibitor, full curve, poor fit] |  |
| CCC(NC(=O)OC(C)(C)C)C(=O)Oc1cc(C)cc2oc(=O)c3c(c12)CCC3 (centres undefined) |  | inactive: 27.5% |

— PubChem BioAssay AID588590 (National Center for Advancing Translational Sciences (NCATS), 2011)
